One assay concerns the target T1, SFB-tagged ΔNp73 (UniProt O15350).
T1 sequence: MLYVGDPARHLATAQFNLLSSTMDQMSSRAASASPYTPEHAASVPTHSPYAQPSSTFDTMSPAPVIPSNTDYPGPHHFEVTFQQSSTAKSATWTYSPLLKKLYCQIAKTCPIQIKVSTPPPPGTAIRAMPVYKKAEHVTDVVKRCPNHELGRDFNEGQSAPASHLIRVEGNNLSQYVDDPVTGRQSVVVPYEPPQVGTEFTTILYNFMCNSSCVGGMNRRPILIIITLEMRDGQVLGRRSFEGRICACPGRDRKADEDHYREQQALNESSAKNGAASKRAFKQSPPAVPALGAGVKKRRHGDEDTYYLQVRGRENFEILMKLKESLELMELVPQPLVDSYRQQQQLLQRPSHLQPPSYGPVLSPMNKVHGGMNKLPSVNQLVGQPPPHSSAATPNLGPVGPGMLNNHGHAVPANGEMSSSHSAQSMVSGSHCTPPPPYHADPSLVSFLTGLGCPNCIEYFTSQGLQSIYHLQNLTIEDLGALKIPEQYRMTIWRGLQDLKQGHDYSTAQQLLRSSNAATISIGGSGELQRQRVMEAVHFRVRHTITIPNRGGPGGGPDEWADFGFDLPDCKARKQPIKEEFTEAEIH
The assay can be described thus: co-IP; co-transfected cells (293T in Fig. 6a); NETN lysate; SFB-tagged protein pulled down with streptavidin (SBP) beads, immunoblot with anti-Myc.

By UniProt entry, the sequences of proteins in these tests, tags left out.
UniProt O00308: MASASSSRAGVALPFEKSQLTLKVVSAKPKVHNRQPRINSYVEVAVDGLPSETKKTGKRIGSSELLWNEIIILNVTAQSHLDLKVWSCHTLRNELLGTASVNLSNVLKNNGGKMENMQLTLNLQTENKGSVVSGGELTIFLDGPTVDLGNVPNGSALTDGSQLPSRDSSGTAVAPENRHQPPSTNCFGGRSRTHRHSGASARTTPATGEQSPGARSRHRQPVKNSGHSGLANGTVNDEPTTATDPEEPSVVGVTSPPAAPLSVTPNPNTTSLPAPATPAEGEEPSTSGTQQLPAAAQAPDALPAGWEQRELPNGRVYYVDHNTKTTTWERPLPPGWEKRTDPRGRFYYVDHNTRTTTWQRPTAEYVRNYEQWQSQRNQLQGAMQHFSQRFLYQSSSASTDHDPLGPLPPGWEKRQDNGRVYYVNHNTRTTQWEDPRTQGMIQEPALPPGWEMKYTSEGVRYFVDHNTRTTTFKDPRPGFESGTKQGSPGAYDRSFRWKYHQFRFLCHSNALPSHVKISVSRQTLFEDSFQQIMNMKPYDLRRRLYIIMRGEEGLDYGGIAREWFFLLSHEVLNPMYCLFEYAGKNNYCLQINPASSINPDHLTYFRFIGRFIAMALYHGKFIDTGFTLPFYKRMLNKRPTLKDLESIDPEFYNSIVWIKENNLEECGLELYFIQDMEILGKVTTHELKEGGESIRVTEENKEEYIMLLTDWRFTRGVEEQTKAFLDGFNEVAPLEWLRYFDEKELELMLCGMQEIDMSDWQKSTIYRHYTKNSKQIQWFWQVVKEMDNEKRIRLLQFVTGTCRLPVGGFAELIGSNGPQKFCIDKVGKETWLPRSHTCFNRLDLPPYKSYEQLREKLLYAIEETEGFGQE

Assay [1] has as its target SFB-WWP2 (WWP2 triple tagged with S-protein/Flag/SBP) (UniProt O00308). The assay is described as above.

No constants are given. Whether binding was seen depends on the method and setting. In cells and extracts the contact can be indirect. Some results given as binding are weak or reduced against the parent protein; the word gives no strength. Tags and fused reporters may be left off the sequences shown.

B1: Myc-HACE1 (enzyme, UniProt Q8IYU2 1-909)
chain: MERAMEQLNRLTRSLRRARTVELPEDNETAVYTLMPMVMADQHRSVSELLSNSKFDVNYAFGRVKRSLLHIAANCGSVECLVLLLKKGANPNYQDISGCTPLHLAARNGQKKCMSKLLEYSADVNICNNEGLTAIHWLAVNGRTELLHDLVQHVSDVDVEDAMGQTALHVACQNGHKTTVQCLLDSGADINRPNVSGATPLYFACSHGQRDTAQILLLRGAKYLPDKNGVTPLDLCVQGGYGETCEVLIQYHPRLFQTIIQMTQNEDLRENMLRQVLEHLSQQSESQYLKILTSLAEVATTNGHKLLSLSSNYDAQMKSLLRIVRMFCHVFRIGPSSPSNGIDMGYNGNKTPRSQVFKPLELLWHSLDEWLVLIATELMKNKRDSTEITSILLKQKGQDQDAASIPPFEPPGPGSYENLSTGTRESKPDALAGRQEASADCQDVISMTANRLSAVIQAFYMCCSCQMPPGMTSPRFIEFVCKHDEVLKCFVNRNPKIIFDHFHFLLECPELMSRFMHIIKAQPFKDRCEWFYEHLHSGQPDSDMVHRPVNENDILLVHRDSIFRSSCEVVSKANCAKLKQGIAVRFHGEEGMGQGVVREWFDILSNEIVNPDYALFTQSADGTTFQPNSNSYVNPDHLNYFRFAGQILGLALNHRQLVNIYFTRSFYKHILGIPVNYQDVASIDPEYAKNLQWILDNDISDLGLELTFSVETDVFGAMEEVPLKPGGGSILVTQNNKAEYVQLVTELRMTRAIQPQINAFLQGFHMFIPPSLIQLFDEYELELLLSGMPEIDVSDWIKNTEYTSGYEREDPVIQWFWEVVEDITQEERVLLLQFVTGSSRVPHGGFANIMGGSGLQNFTIAAVPYTPNLLPTSSTCINMLKLPEYPSKEILKDRLLVALHCGSYGYTMA
As for B1, in the assay with SFB-tagged ΔNp73, the binding result is recorded as “no binding”.

B2: Myc-PPM1G (enzyme, UniProt O15355 1-546)
chain: MGAYLSQPNTVKCSGDGVGAPRLPLPYGFSAMQGWRVSMEDAHNCIPELDSETAMFSVYDGHGGEEVALYCAKYLPDIIKDQKAYKEGKLQKALEDAFLAIDAKLTTEEVIKELAQIAGRPTEDEDEKEKVADEDDVDNEEAALLHEEATMTIEELLTRYGQNCHKGPPHSKSGGGTGEEPGSQGLNGEAGPEDSTRETPSQENGPTAKAYTGFSSNSERGTEAGQVGEPGIPTGEAGPSCSSASDKLPRVAKSKFFEDSEDESDEAEEEEEDSEECSEEEDGYSSEEAENEEDEDDTEEAEEDDEEEEEEMMVPGMEGKEEPGSDSGTTAVVALIRGKQLIVANAGDSRCVVSEAGKALDMSYDHKPEDEVELARIKNAGGKVTMDGRVNGGLNLSRAIGDHFYKRNKNLPPEEQMISALPDIKVLTLTDDHEFMVIACDGIWNVMSSQEVVDFIQSKISQRDENGELRLLSSIVEELLDQCLAPDTSGDGTGCDNMTCIIICFKPRNTAELQPESGKRKLEEVLSTEGAEENGNSDKKKKAKRD
As to B2, the binding result in assay [1] is “binds”.

These data come from article PMC4187731.
